Source: PubChem BioAssay AID445 (National Center for Advancing Translational Sciences (NCATS), 2006)
The list shows a part of the results. These are further read-outs of the screen, such as a control signal, another cell line or another target. No call is given for them. Compounds called inactive in the main read-out are mostly missing here. The note in brackets gives the kind of curve behind each potency; many fits are weak.

Experiment: IkB Signaling
Conditions: ABC-DLBCL IkBa-CBG/CBR dual luciferase ratio (green luciferase fused to IkBa over red control in OCI-Ly3 lymphoma cells), 4 h; measured here: control luc red channel unless noted
In short: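 In this assay, an IκBα–CBG68 fusion accumulates when IKK-driven degradation is blocked; native CBR normalizes for cell number. OCI-Ly3 cells were treated 4 h with compound and doxycycline, then green and red light read after Chroma-Glo addition.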

Row | Compound | AC50
1 | COc1ccc(S(=O)(=O)N(C(=O)c2ccncc2)c2ccc3oc(C)c(C(C)=O)c3c2)cc1 | 12.6 µM [falling, partial curve]
2 | Cc1ccnc(NC(c2cc(C)ccc2O)c2ccc3cccnc3c2O)c1 (configuration not stated) | 20 µM [falling, partial curve]
3 | COc1ccc(-c2cn3c(n2)sc2cc(C(=O)NC4CCCCC4)ccc23)cc1 | 39.8 µM [falling, single point]
4 | COc1ccccc1N1CCN(Cc2cc(COC(C)C)c3cccnc3c2O)CC1 | 5.01 µM [falling, partial curve]
5 | CCOC(=O)C1CCCN(C(=O)Cn2nc(C)n3c(cc4c(OC)cccc43)c2=O)C1 (configuration not stated) | 25.1 µM [falling, partial curve]
6 | Cc1ccc(Nc2c(-c3cccc(Cl)c3)nc3cccc(C)n23)cc1 | 15.8 µM [falling, partial curve, poor fit]
7 | Cc1ccc(NC(=O)CSc2nc(=O)n(CCN3CCOCC3)c3c2CCC3)cc1Cl | 20 µM [falling, partial curve]
8 | Cn1c(=O)nc2n(-c3ccc(Br)cc3)c3cccc(Cl)c3cc-2c1=O | 6.31 µM [falling, partial curve]
9 | CCCc1noc(-c2ccc(NCc3ccccc3OC)c([N+](=O)[O-])c2)n1 | 2.51 µM [rising, partial curve, poor fit]
10 | Cc1[nH]c2ccccc2c1SCCNC(=O)c1ccc(F)cc1 | 15.8 µM [falling, partial curve]
11 | CC(C)c1ccc(NC(=O)CSC2=Nc3ccccc3C3=NC(CC(=O)NCCc4ccccc4)C(=O)N23)cc1 (configuration not stated) | 25.1 µM [falling, single point]
12 | COc1ccc(Cl)cc1NC(=O)c1c(NCc2cccs2)sc2c1CCC(C)C2 (configuration not stated) | 12.6 µM [falling, partial curve]
13 | CCOc1ccccc1NC(=O)CSc1nc(-c2cccs2)cc(C(F)(F)F)n1 | 31.6 µM [falling, partial curve]
14 | O=C(CSc1nnc(-c2ccco2)o1)c1ccccc1 | 15.8 µM [falling, partial curve]
15 | COc1ccc(N(C(=O)c2cc(OC)c(OC)c(OC)c2)S(=O)(=O)c2ccc(C)cc2)cc1 | 25.1 µM [rising, partial curve]
16 | CN(C)C1(CNC(=O)COc2cccc(Cl)c2)CCCCC1 | 15.8 µM [falling, partial curve]
17 | Cc1ccccc1C(=O)Nc1ccc2nc(SCC(=O)N(C)c3ccccc3)sc2c1 | 2 µM [falling, partial curve]
18 | Cc1cccc(Cn2c(SCc3ccc(C(=O)NCc4cccs4)cc3)nc3ccncc32)c1 | 10 µM [falling, partial curve]
19 | COc1cc(N)ccc1Cc1ccc(N)cc1OC | 5.01 µM [falling, partial curve]
20 | CCOc1cc(C2CC(=O)Nc3c2c(C)nn3-c2nc(C)cc(C)n2)ccc1O (configuration not stated) | 5.01 µM [rising, full curve, poor fit]
21 | Cc1ccc(-c2onc(C)c2C)cc1S(=O)(=O)NC1CCC(C)CC1 (configuration not stated) | 15.8 µM [falling, partial curve]

Row | Compound | AC50
22 | COC(=O)c1cccnc1-n1c(=O)c2cccnc2n(CC(=O)Nc2cccc(C(F)(F)F)c2)c1=O | 39.8 µM [falling, partial curve, poor fit]
23 | O=C(/C=C/c1ccccc1)Nc1cc(-c2nc3ccccc3o2)ccc1Cl | 15.8 µM [rising, partial curve]
24 | FC(F)(F)c1cccc(N2CCN(Cc3nnc(-c4ccccc4)o3)CC2)c1 | 7.94 µM [falling, partial curve]
25 | CC(C)c1ccc(-c2noc(SCC(=O)N3CCCCC3)n2)cc1 | 25.1 µM [falling, single point]
26 | O=C(Nc1ccc(N2CCOCC2)c(Cl)c1)c1c(F)c(F)c(F)c(F)c1F | 0.398 µM [falling, full curve]
27 | CCOC(=O)N1CCN(c2nc(C(F)(F)F)nc3c(C)cc(C)cc23)CC1 | 3.98 µM [falling, partial curve]
28 | Cc1cccc(Cc2c(C)nc3nc(SCC(=O)NC4CCCCC4)nn3c2C)c1 | 2.51 µM [falling, partial curve]
29 | Fc1ccc(-c2noc3ncnc(NCc4cccc(Cl)c4)c23)cc1 | 0.0398 µM [falling, full curve, poor fit]
30 | CSc1cccc(NS(=O)(=O)c2ccc3[nH]cc(C(=O)N4CCCCCC4)c(=O)c3c2)c1 | 15.8 µM [falling, single point]
31 | COc1ccccc1CNC(=O)c1cnn(-c2ccc(F)cc2F)c1C1CCN(C(=O)OC(C)(C)C)CC1 | 20 µM [falling, partial curve]
32 | COc1ccc(-c2nnc(SCc3nnc(-c4ccc(Cl)cc4)o3)n2-c2ccccc2)cc1 | 12.6 µM [falling, partial curve]
33 | Cc1ccccc1OCC(=O)Nc1nnc(S(=O)(=O)N(C)c2ccccc2)s1 | 0.501 µM [rising, full curve]
34 | O=C(Cn1c(=O)n(-c2ccccc2)c(=O)c2c3c(sc21)CCCC3)Nc1ccc(F)cc1 | 15.8 µM [falling, partial curve]
35 | COc1ccccc1N1CCN(C(=O)c2cc3c(=O)n(Cc4cccnc4)ccc3nc2C)CC1 | 0.316 µM [rising, partial curve, poor fit]
36 | CCC1Oc2ccccc2N(CC(=O)NCc2ccc(C)cc2)C1=O (configuration not stated) | 31.6 µM [falling, single point]
37 | COc1cccc(NC(=O)CN2C(=O)C3(SCC(=O)N3c3cc(C)cc(C)c3)c3ccccc32)c1 (configuration not stated) | 12.6 µM [falling, partial curve, poor fit]
38 | COc1ccc2cc(C(c3nnnn3CCc3ccccc3)N3CCCC(C)C3)c(=O)[nH]c2c1 (configuration not stated) | 20 µM [falling, partial curve]
39 | O=C(Nc1ccc(Cl)cc1C(F)(F)F)c1cc(S(=O)(=O)NCc2ccccc2)ccc1F | 39.8 µM [falling, partial curve]
40 | Cc1cc(C(=O)CSc2nnc(-c3cccs3)n2Cc2ccccc2)c(C)n1C | 15.8 µM [falling, partial curve]
41 | O=C(CSc1nccn1C1CCCC1)Nc1ccccc1 | 0.2 µM [falling, single point]
42 | COc1ccc(CNC(=O)CCS(=O)(=O)c2ccc3c(c2)CC(C)N3C(=O)C2CC2)cc1 (configuration not stated) | 39.8 µM [falling, partial curve]

Row | Compound | AC50
43 | O=C1c2ccccc2C(Nc2ccc(-c3nc4ccccc4[nH]3)cc2)N1Cc1ccco1 (configuration not stated) | 7.94 µM [falling, partial curve]
44 | CCc1nnc(NC(=O)CSc2ncc(-c3ccccc3)n2CC)s1 | 31.6 µM [falling, single point]
45 | Clc1ccc(-c2nnc(-c3cccc4ccccc34)o2)cc1Cl | 0.0631 µM [falling, full curve]
46 | CCc1ccc(S(=O)(=O)c2nnn3c2nc(NCCC(C)C)c2cc(Cl)ccc23)cc1 | 0.158 µM [falling, full curve]
47 | CC(CCc1ccccc1)NC(=O)C1CCCN(c2nnc(-n3cccc3)s2)C1 (configuration not stated) | 12.6 µM [falling, partial curve]
48 | COc1ccc2c(c1)c(CC(=O)Nc1cc(C)c(OC)c(C)c1)c(C)n2C(=O)c1ccc(Cl)cc1 | 7.94 µM [falling, partial curve]
49 | CC(=O)c1ccc(OC(=O)c2c(-c3ccccc3Cl)noc2C)cc1 | 39.8 µM [falling, single point]
50 | Cn1nc(C(=O)Nc2cccc(C(F)(F)F)c2)c2c1-c1ccccc1S(=O)(=O)C2 | 12.6 µM [falling, partial curve]
51 | CCCN(CCC)S(=O)(=O)c1ccc(C(=O)N2CCn3c4c(c5cc(C)ccc53)CCCC42)cc1 (configuration not stated) | 10 µM [falling, partial curve]
52 | CCOc1ccc(NS(=O)(=O)c2ccc3[nH]cc(C(=O)NCCc4ccccc4)c(=O)c3c2)cc1 | 31.6 µM [falling, single point]
53 | Cc1occc1C(=O)Nc1ccc2ccccc2c1 | 12.6 µM [falling, partial curve]
54 | Nc1nonc1-c1nc2ccccc2n1CC(=O)Nc1ccc(F)cc1 | 1.26 µM [falling, full curve, poor fit]
55 | COc1ccc(-c2nc(SCC(=O)NCc3ccco3)c(-c3ccccc3)[nH]2)cc1OC | 10 µM [falling, partial curve]
56 | Cc1ccc(S(=O)(=O)c2cn(CC(=O)Nc3ccccc3)c3cc4c(cc3c2=O)OCO4)cc1 | 1.26 µM [falling, full curve, poor fit]
57 | Cc1ccc(-c2nc(CS(=O)CC(=O)O)c(C)o2)cc1 (configuration not stated) | 39.8 µM [falling, partial curve]
58 | COc1cccc(N2CCN(CC(=O)Nc3nnc(-c4ccccc4)s3)CC2)c1 | 12.6 µM [falling, partial curve]
59 | CC(=O)c1cccc(NC(=O)c2cc(C(C)C)on2)c1 | 20 µM [falling, single point]
60 | Cc1cccc(N2CCN(C(=O)c3ccc4c(c3)CCN4S(=O)(=O)c3ccccc3)CC2)c1C | 3.16 µM [falling, full curve]
61 | CCC(C(=O)Nc1cc(OC)ccc1OC)n1nc(-c2ccccc2)c2c(c1=O)CCCC2 (configuration not stated) | 31.6 µM [falling, single point]
62 | CN(C)S(=O)(=O)N(CC(=O)NCCSc1ccc(Cl)cc1)c1ccccc1 | 25.1 µM [falling, partial curve]

An excerpt of these results, tab-delimited.
Row	Compound	AC50
1	COc1ccc(S(=O)(=O)N(C(=O)c2ccncc2)c2ccc3oc(C)c(C(C)=O)c3c2)cc1	12.6 µM [falling, partial curve]
7	Cc1ccc(NC(=O)CSc2nc(=O)n(CCN3CCOCC3)c3c2CCC3)cc1Cl	20 µM [falling, partial curve]
8	Cn1c(=O)nc2n(-c3ccc(Br)cc3)c3cccc(Cl)c3cc-2c1=O	6.31 µM [falling, partial curve]
58	COc1cccc(N2CCN(CC(=O)Nc3nnc(-c4ccccc4)s3)CC2)c1	12.6 µM [falling, partial curve]
